At least one peptide structure holds a part that was inferred or is arguable (an end, a ring closure or a residue). Where no end group is shown, it is not given here.
Columns and labels:
[1] = tested on: human-derived chondrocytes (C28/I2); test: Glycosaminoglycan production, Alcian blue staining; format: cell-based; conditions: C28/I2 cells, different concentrations, after 7 days
[2] = tested on: human-derived chondrocytes (C28/I2); test: mRNA expression of ECM components, PCR; format: cell-based; conditions: C28/I2 cells, different concentrations, after 1, 3, and 7 days
[3] = tested on: human-derived chondrocytes (C28/I2); test: mRNA expression of ECM regulatory factor SOX9, PCR; format: cell-based; conditions: C28/I2 cells, different concentrations, after 1, 3, and 7 days
[4] = tested on: human-derived chondrocytes (C28/I2); test: Expression of SOX5, SOX6 and SOX9 proteins, Western blot; format: cell-based; conditions: C28/I2 cells, after 1, 3, and 7 days
[5] = tested on: adipose-derived mesenchymal stem cells (AD-MSC); test: Glycosaminoglycan production, Alcian blue staining; format: cell-based, human; conditions: different concentrations, after 14 days
[6] = tested on: adipose-derived mesenchymal stem cells (AD-MSC); test: mRNA expression of ECM components, PCR; format: cell-based, human; conditions: after 3, 7, and 14 days
[7] = tested on: adipose-derived mesenchymal stem cells (AD-MSC); test: mRNA expression of ECM regulatory factor SOX9, PCR; format: cell-based, human; conditions: after 3, 7, and 14 days
[8] = tested on: adipose-derived mesenchymal stem cells (AD-MSC); test: Expression of SOX5, SOX6 and SOX9, Western blot; format: cell-based, human; conditions: after 3, 7, and 14 days
[9] = tested on: adipose-derived mesenchymal stem cells (AD-MSC); test: Expression of cartilage component COL2A1, Western blot; format: cell-based, human; conditions: after 3, 7, and 14 days
[10] = tested on: human-derived chondrocytes (C28/I2); test: mRNA expression of hypertrophic markers COL10A1 and Runx2, PCR; format: cell-based; conditions: C28/I2 cells, different concentrations, after 3 days
[11] = tested on: three-dimensionally cultured human-derived chondrocytes (C28/I2); test: Glycosaminoglycan production in micromass (three-dimensional) culture, Alcian blue staining; format: cell-based; conditions: three-dimensionally cultured (micromass) C28/I2 cells
[12] = tested on: three-dimensionally cultured human-derived chondrocytes (C28/I2); test: mRNA expression of ECM components in micromass (three-dimensional) culture, PCR; format: cell-based; conditions: three-dimensionally cultured (micromass) C28/I2 cells
[13] = tested on: three-dimensionally cultured human-derived chondrocytes (C28/I2); test: SOX9 protein expression in micromass (three-dimensional) culture, Western blot; format: cell-based; conditions: three-dimensionally cultured (micromass) C28/I2 cells

Substance | production of glycosaminoglycan [1] | production of ACAN (mRNA expression) [2] | production of COL2A1 (mRNA expression) [2] | production of COL 11A (mRNA expression) [2] | production of COMP (mRNA expression) [2] | production of SOX9, an ECM regulatory factor (mRNA expression) [3] | expression of ECM regulatory factor SOX5 (protein) [4] | expression of ECM regulatory factor SOX6 (protein) [4] | expression of ECM regulatory factor SOX9 (protein) [4] | production of glycosaminoglycan [5] | production of ACAN (mRNA expression) [6] | production of COL2A1 (mRNA expression) [6] | production of COL 11A (mRNA expression) [6] | production of COMP (mRNA expression) [6] | production of hPCP (mRNA expression) [6] | production of SOX9, an ECM regulatory factor (mRNA expression) [7] | expression of ECM regulatory factor SOX5 [8] | expression of ECM regulatory factor SOX6 [8] | expression of ECM regulatory factor SOX9 [8] | expression of COL2A1 [9] | further results
KVSYAAEKNRKNY [Peptide-1, KVSYAAEKNRKNY] | promoted the production | induced the production | induced the production | induced the production | induced the production | promoted the production | increased the expression | increased the expression | increased the expression | increasing the production | induced the production | induced the production | induced the production | induced the production | induced the production | promoted the production | increased the expression | increased the expression | increased the expression | increased the expression | 
SSFYF [Peptide-2, SSFYF] | promoted the production | induced the production | induced the production | induced the production | induced the production | promoted the production | increased the expression | increased the expression | increased the expression | increasing the production | induced the production | induced the production | induced the production | induced the production | induced the production | promoted the production | increased the expression | increased the expression | increased the expression | increased the expression | expression of hypertrophic marker COL10A1 (mRNA) [10]: inhibited the expression; expression of hypertrophic marker Runx2 (mRNA) [10]: inhibited the expression; production of glycosaminoglycan [11]: promoted the production; production of ACAN (mRNA) [12]: induced the production; production of COL2A1 (mRNA) [12]: induced the production; production of COL11A (mRNA) [12]: induced the production; production of COMP (mRNA) [12]: induced the production; expression of SOX9 protein, an ECM regulatory factor [13]: enhanced the expression

— patent EP4631968A1, “PEPTIDE FOR CARTILAGE REGENERATION, AND USES THEREOF” (Caregen Co., Ltd., priority 2022, dated 2024)
